Assay results reported in article PMC6971206.
No constants are given. Whether binding was seen depends on the method and setting. Binding seen in cells or lysates may run through a third protein. Some results given as binding are weak or reduced against the parent protein; the word gives no strength. Sequences can lack the tags named with a protein. One block for each binder: values may come before it.

Legend:
[1] = biological target: T1, Cox6FLAG, cytochrome c oxidase subunit Cox6 with FLAG-tag (S. cerevisiae) (UniProt P00427); assay: co-IP; purification via FLAG-tag on Rcf1, Rcf2 or Cox6 from mitochondria solubilised in 2% digitonin (cells grown in YPG, 30°C, logarithmic phase), endogenous expression levels; Western blot
T1 sequence: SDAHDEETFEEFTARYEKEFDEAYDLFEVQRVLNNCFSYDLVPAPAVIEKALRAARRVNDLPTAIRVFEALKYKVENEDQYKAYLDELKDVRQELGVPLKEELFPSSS

[2] = biological target: T2, Cox3, cytochrome c oxidase subunit (S. cerevisiae (endogenous in BY4741 mitochondria)) (UniProt P00420); assay: cross-linking; isolated mitochondria in isotonic buffer (0.6 M sorbitol, 20 mM HEPES pH 7.4) with 200 μM crosslink reagent (SMPB; also BMH in Figure 6C) for 30 min at 30°C, DMSO as control; SDS-PAGE, Western blot and immuno decoration
T2 sequence: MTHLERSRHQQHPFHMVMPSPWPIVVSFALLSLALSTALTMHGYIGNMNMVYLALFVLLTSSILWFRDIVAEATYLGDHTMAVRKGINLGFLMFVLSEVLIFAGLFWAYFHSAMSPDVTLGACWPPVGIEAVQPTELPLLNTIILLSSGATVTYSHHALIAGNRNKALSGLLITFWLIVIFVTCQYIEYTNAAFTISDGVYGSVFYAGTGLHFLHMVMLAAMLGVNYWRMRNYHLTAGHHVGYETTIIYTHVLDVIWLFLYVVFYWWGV

[3] = biological target: Rcf1FLAG, full-length Rcf1 with FLAG-tag (S. cerevisiae) (UniProt Q03713); assay: as above

B3: Rcf1 (respiratory supercomplex factor 1) (protein, UniProt Q03713 1-159)
chain: MSRMPSSFDVTERDLDDMTFGERIIYHCKKQPLVPIGCLLTTGAVILAAQNVRLGNKWKAQYYFRWRVGLQAATLVALVAGSFIYGTSGKELKAKEEQLKEKAKMREKLWIQELERREEETEARRKRAELARMKTLENEEEIKNLEKELSDLENKLGKK
- binding [1]: binds

B4: Rcf1FLAG, full-length Rcf1 with FLAG-tag (protein, UniProt Q03713 1-159)
chain: B3 chain
- binding [3]: no binding
- binding [2]: binds

Results, then the binder that gave them:

- binding [1]: binds
B1: Rcf2 (respiratory supercomplex factor 2) (protein, UniProt P53721 1-224)
chain: MKILTQDEIEAHRSHTLKGGIEGALAGFAISAIIFKVLPRRYPKFKPSTLTWSIKTALWITPPTVLTAICAEEASNNFDATMYGSGSSSEDALDEHRRWKSLSTKDKFVEGLSNNKYKIITGAWAASLYGSWVIVNKDPIMTKAQKIVQARMYAQFITVGLLLASVGLSMYENKLHPNKQKVNEMRRWENALRVAEEEERLEKEGRRTGYVSNEERINSKIFKS

- binding [2]: binds
B2: Rcf1ΔC, conserved Hig-domain of Rcf1 without the C-terminus, FLAG-tagged (domain or fragment, UniProt Q03713 1-95)
chain: MSRMPSSFDVTERDLDDMTFGERIIYHCKKQPLVPIGCLLTTGAVILAAQNVRLGNKWKAQYYFRWRVGLQAATLVALVAGSFIYGTSGKELKAK
